Reference: publication PMC7080674
Results are given in words; binding and its absence hold for the method and conditions named. Some results given as binding are weak or reduced against the parent protein; the word gives no strength.

Amino acid sequences for entries named in this document (tags omitted). A change or cut given only in a name is not applied to a line headed by its entry. Residues count along the entry.
UniProt P24063: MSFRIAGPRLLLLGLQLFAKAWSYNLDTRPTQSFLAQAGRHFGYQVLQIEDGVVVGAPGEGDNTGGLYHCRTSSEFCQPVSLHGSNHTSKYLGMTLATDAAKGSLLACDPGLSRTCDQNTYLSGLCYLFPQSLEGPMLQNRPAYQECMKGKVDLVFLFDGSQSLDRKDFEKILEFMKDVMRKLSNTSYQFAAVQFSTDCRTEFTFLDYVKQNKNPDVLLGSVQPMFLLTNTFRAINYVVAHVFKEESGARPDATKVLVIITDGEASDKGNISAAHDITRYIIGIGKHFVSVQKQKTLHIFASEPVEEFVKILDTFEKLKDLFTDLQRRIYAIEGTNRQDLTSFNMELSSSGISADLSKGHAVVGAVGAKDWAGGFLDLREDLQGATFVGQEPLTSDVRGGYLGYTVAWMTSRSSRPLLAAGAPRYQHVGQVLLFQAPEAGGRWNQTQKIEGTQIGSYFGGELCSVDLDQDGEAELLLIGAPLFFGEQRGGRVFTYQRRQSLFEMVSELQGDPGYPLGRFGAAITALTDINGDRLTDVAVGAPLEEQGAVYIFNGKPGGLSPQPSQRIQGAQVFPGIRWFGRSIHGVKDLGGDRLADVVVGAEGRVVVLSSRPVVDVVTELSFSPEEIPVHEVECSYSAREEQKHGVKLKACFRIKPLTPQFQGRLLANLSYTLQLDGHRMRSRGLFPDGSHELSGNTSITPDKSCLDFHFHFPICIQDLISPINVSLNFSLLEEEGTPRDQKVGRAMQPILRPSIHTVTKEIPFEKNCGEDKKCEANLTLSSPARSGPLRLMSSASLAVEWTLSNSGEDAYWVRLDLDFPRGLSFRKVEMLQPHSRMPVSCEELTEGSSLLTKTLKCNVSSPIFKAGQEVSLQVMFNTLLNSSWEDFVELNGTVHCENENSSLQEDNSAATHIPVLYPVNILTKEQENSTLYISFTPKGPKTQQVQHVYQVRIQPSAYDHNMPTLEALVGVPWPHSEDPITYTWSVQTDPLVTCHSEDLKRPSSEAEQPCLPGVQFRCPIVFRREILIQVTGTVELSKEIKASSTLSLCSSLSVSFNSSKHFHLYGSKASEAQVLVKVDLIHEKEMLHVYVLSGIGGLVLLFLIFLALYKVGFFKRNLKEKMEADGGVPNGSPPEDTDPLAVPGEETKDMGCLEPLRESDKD
UniProt P11835: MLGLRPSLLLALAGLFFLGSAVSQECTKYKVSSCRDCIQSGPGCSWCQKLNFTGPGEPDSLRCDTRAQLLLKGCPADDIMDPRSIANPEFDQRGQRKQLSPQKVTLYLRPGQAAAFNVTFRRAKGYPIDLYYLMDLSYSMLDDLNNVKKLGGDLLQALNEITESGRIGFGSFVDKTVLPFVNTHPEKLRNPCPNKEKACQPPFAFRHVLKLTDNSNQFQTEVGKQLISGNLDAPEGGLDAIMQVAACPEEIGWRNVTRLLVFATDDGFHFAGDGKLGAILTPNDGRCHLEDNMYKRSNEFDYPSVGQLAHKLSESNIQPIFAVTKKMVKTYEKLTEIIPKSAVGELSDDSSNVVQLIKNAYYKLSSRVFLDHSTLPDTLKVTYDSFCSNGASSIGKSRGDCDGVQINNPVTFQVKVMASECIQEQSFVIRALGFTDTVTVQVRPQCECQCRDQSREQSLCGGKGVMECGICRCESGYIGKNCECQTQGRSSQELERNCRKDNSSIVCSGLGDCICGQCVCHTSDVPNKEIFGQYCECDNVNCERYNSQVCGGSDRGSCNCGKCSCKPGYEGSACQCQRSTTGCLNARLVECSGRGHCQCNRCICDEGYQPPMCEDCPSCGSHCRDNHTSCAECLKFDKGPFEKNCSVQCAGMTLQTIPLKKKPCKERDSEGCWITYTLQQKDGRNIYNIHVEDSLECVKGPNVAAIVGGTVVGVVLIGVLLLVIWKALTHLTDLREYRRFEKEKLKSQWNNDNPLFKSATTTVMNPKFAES
UniProt P13597, residues 28-485: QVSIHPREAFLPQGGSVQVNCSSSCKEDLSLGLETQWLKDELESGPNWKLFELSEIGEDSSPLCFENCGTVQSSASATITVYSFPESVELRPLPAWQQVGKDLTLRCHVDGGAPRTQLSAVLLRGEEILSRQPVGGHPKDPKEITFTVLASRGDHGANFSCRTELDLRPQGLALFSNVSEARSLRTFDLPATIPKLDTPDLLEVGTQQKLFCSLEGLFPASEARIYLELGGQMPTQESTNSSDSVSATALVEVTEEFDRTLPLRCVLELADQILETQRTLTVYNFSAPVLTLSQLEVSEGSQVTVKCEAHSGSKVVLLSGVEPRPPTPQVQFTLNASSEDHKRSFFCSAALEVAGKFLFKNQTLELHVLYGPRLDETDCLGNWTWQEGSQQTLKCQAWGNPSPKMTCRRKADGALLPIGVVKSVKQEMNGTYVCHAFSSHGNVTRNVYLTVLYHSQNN

Biological target: LFA1 (integrin αLβ2) (mouse (endogenous in neutrophils)) (UniProt P24063+P11835)
Assay: flow cytometry on cells; murine neutrophils (WT or TRPC6-/-) from overnight cultures, incubated with CD11b antibody (clone M1/70, 10 ug/ml) to avoid Mac-1 binding; ICAM-1/Fc 20 ug/ml with allophycocyanin-conjugated IgG (Fc specific); unstimulated or stimulated with CXCL1 (0.1 ug/ml, 3 min); only the binder purified

ICAM-1/Fc (from UniProt P13597 28-485) (Fc fusion)
binding: binds
